Percent effect of library compounds

Source: ChEMBL document CHEMBL3988442, “University of Dundee, Small-Polar-MMV Screening Library” (2021).

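Whole-cell growth test on Mycobacterium tuberculosis, read after 3 days in glucose-containing 7H9 medium; the read-out is not stated. Concentration: 50 µM. Direction is inferred from retests: higher values go with more growth inhibition. About 69,000 compounds were tested under these conditions; 1.1% (about 760) showed 50% or more at least once.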

Each number is a percent effect as filed.
How 0% and 100% were set is not recorded. Most values in the screen are low, and negative values occur.
This is an unselected part of the compounds tested.
Two or more numbers in one place are separate tests of the same structure; such repeats can differ widely.

| # | Compound | effect |
|---|---|---|
| 1 | `CCOc1ccc(CN2CCC(c3[nH]ncc3C)C2)cc1CO` (centres undefined) | -19.16 |
| 2 | `N#Cc1nccnc1N1CCC(CSc2ccccc2)C1` (centres undefined) | 47.06 |
| 3 | `COc1ccccc1OC1CCN(c2ccncc2)CC1` | -43.66 and -2.445 |
| 4 | `COc1cccc(CC2CN(C3CCCCC3)CCO2)c1` (centres undefined) | 14.87 |
| 5 | `CCC(=O)NCC(=O)NCC1(O)CCC(C(C)(C)C)CC1` (centres undefined) | -7.984 |
| 6 | `Cc1nonc1N1CCN(Cc2nc(CC3CC3)no2)CC1` | -15.65 |
| 7 | `COCC(=O)N1CCC2(CC1)CC(OC)c1ccc(F)cc12` (centres undefined) | -8.891 and -8.3 |
| 8 | `O=C(NCCCF)N1CCC(n2ccc(C(F)(F)F)n2)CC1` | 14.7 |
| 9 | `Cc1ccc(N2CCCC(NCc3ccncc3)C2)nn1` (centres undefined) | -40.05 |
| 10 | `O=C(Cc1ccccn1)N1CCC2(CC1)[C@H](O)C[C@@H]2O` | 15.77 |
| 11 | `CC(C)Cc1ncc2c(n1)CN(c1nccc(N(C)C)n1)C2` | -83.81 and -1.8 |
| 12 | `CCc1ncc2c(n1)CN(Cc1nc(-c3ccoc3)no1)CC2` | 1.974 |
| 13 | `CCN(CC)S(=O)(=O)c1ccc(OC)c(NC(=O)CSC)c1` | 28.31 and -5.386 |
| 14 | `CCOc1ncccc1NC(=O)N1CCN(Cc2ccncc2)CC1` | -16.77 |
| 15 | `c1ccc(COC2CCN(Cc3cc4n(n3)CCCNC4)CC2)nc1` | 5.084 |
| 16 | `NC(=O)c1cnc(-c2ccccc2)nc1CCNC(=O)CN1CCCC1` | -12.06 |
| 17 | `N#Cc1c2n(c3c(N)ncnc13)CCCCC2` | -35.6 and -13.21 |
| 18 | `CCCC(=O)Nc1cccc(C(=O)N(C)CCCC2CCCO2)c1` (centres undefined) | -0.9355 |
| 19 | `Cc1ccc2cccc(C(=O)N3CCN(c4cccnn4)CC3)c2n1` | 25.43 |
| 20 | `O=C(O)C(F)(F)F.[H][C@]12CC[C@@]3(N=C(CC)NC3=O)[C@@]1([H])CN(CC(C)C)C2` | -6.57 and -5.345 |
| 21 | `COc1ccc(OC)c(Sc2ncccc2C(=O)NCCSC)c1` | 7.282 |
| 22 | `CCc1cc(NC2CCN(Cc3ccccc3F)CC2)n2nccc2n1` | 0.3604 |
| 23 | `Cc1ccsc1C(=O)N1CCC(O)(CN2CCc3ccccc3C2)C1` (centres undefined) | 11.23 |
| 24 | `Cn1cnnc1SC1CCc2ccccc2NC1=O` (centres undefined) | -5.778 |
| 25 | `CCc1nc(C(=O)N2CCN(C)c3ccccc32)c[nH]1` | 6.32 |
| 26 | `O=C(O)C(F)(F)F.O=C(O)C(F)(F)F.[H][C@]12CCC[C@@H](CN(C)C3CC3)[C@@]1([H])CN(Cc1cccnc1)C2` | -3.269 and 22.61 |
| 27 | `CN(C)CC1(O)CCCN(C(=O)c2cnc(-c3ccccn3)nc2)C1` (centres undefined) | -22.91 |
| 28 | `[H][C@@]12CCN(C(=O)Cc3cccc(O)c3)C[C@]1([H])[C@@H](c1ccccc1)CN2C` | -37.53 |
| 29 | `CCC(C)NC(=O)CN1CCOCC1` (centres undefined) | -9.794 |
| 30 | `CCc1noc(C2CCCCN2C(=O)c2nnc3ccccc3n2)n1` (centres undefined) | 17.93 |
| 31 | `CC(c1ccncn1)N(C)S(=O)(=O)NCc1ccccc1` (centres undefined) | -37.09 |
| 32 | `O=C(c1nnn(-c2ccccc2)n1)N(CCO)CCO` | -22.96 |
| 33 | `O=c1cc(N2CCCCC2)cnn1C[C@H](O)CO` | -4.621 |
| 34 | `COc1cc(NC(=O)NCCO)ccc1N1CCOC1=O` | 16.41 |
| 35 | `CCC1CN(c2nnc(C)c(C)c2C#N)CCO1` (centres undefined) | 4.748 |
| 36 | `CC(=O)N(CCc1ccccc1)CC(=O)Nc1ccccc1C#N` | 2.191 |
| 37 | `Cc1cc(C(=O)N[C@H]2CN(CCO)C[C@@H]2C2CC2)sc1C` | 8.477 |
| 38 | `CC(C)Cc1noc(CN2CCCC(Cn3cncn3)C2)n1` (centres undefined) | 18.02 |
| 39 | `CN(CCc1nccs1)C(=O)C1(C#N)CCCCC1` | -1.983 |
| 40 | `c1coc(-c2nnc(CN3CCOC(Cn4cccn4)C3)o2)c1` (centres undefined) | 6.484 |
| 41 | `[H][C@@]12COC[C@]1([H])[C@@H](OCc1cccnc1)CN2C(=O)c1ccc(C)nc1` | 8.349 |
| 42 | `CN(Cc1noc(C2CC2)n1)C1CCN(CCc2cnn(C)c2)C1` (centres undefined) | -30.97 |
| 43 | `Cn1cnc2c1CCN(Cc1cccc(C(=O)N3CCCCC3)c1)C2` | -4.166 |
| 44 | `[H][C@]12CCC[C@@]1(COCc1ccccn1)CN(C(=O)Cc1ccsc1)C2` | -18.64 |
| 45 | `CCn1cc(CNCc2ccc(C(=O)OC)cc2)c(C)n1` | -2.026 |
| 46 | `Cc1cnc(N2CC3(CCN(S(=O)(=O)C4CC4)C3)C2)nc1.O=C(O)C(F)(F)F` | -15.9 |
| 47 | `CCc1nnc2n1CCN(C(=O)c1csc(-c3cnn(C)c3)n1)C2` | -9.643 and 17.84 |
| 48 | `CCn1cc(CN2CCCN(C(=O)CCN3CCCC3=O)CC2)cn1` | -16.88 |
| 49 | `Cc1ccc(-c2ccc(C3CNCCO3)nc2)cc1.Cl` (centres undefined) | 32.67 |
| 50 | `COc1ccc(CN2CCC3(CC2)CC(c2cccnc2)CO3)cc1.O=C(O)C(F)(F)F.O=C(O)C(F)(F)F` (centres undefined) | -11.8 |
| 51 | `COc1c(C)cnc(CNC(=O)CCOCc2ccccc2)c1C` | -17.54 |
| 52 | `CN1CC(=O)N(c2cccc(F)c2)CC12CCN(S(C)(=O)=O)C2.O=C(O)C(F)(F)F` (centres undefined) | -20.99 |
| 53 | `CN(C)CCNC(=O)CC1CCN(c2cccnn2)CC1` | 24.16 |
| 54 | `O=C(Cc1ccccn1)N1CCN(C(=O)c2cccc3[nH]ncc23)CC1` | -11.77 |
| 55 | `CCN(Cc1nc(-c2ccco2)no1)Cc1cccc2c1OCO2` | 16.93 |
| 56 | `Cc1cccnc1NC(=O)CSc1ccc2c(c1)OCCO2` | -3.1 and -2.187 |
| 57 | `O[C@H]1[C@H](n2cc(-c3ccccc3)nn2)c2ccccc2C12CCNCC2` | 6.183 and 5.43 |
| 58 | `Nc1nccnc1C1CN(C(=O)c2ccc3c(c2)OCO3)CCO1` (centres undefined) | -1.439 |
| 59 | `COc1cc(C2(C(=O)N3CCN(CC(C)O)CC3)CC2)ccc1C` (centres undefined) | -5.224 |
| 60 | `O=C(NCCN1CCCCCC1=O)Nc1cccnc1-n1cccn1` | -0.6492 and -12.98 |
| 61 | `Cc1cc2nc(-c3ccccc3)cc(NCC3CCS(=O)(=O)C3)n2n1` (centres undefined) | -12.04 |
| 62 | `CCCn1nccc1S(=O)(=O)N1CCC2(CCCN(C(C)C)C2=O)C1` (centres undefined) | 5.765 |
| 63 | `NC(=O)NC(=O)CNC1(c2ccc(Cl)cc2)CCC1` | 21.15 |
| 64 | `O=C(CCC(=O)N1CCCC1c1cccs1)N1CCc2sccc2C1` (centres undefined) | 27.5 |
| 65 | `Cc1ccc(-c2nc(CN3CCOC(Cn4cccn4)C3)no2)cc1` (centres undefined) | 2.904 |
| 66 | `CC(=O)N1CCN([C@@H]2CC[C@@H](NC(=O)c3cncc(C)c3)[C@H]2O)CC1` | 30.13 |
| 67 | `Cc1nn(C)c2nc(N3CCCC3c3nccs3)sc12` (centres undefined) | 21.38 and 3.179 |
| 68 | `c1cnn(-c2ccc(CCNC3CCN(C4CC4)C3)cc2)c1` (centres undefined) | 10.65 |
| 69 | `Cc1cc(C)c(-n2cc(CCO)cn2)cc1C` | 19.89 |
| 70 | `COc1cccc(C(CO)NC(=O)Cc2ccc(F)c(Br)c2)c1` (centres undefined) | -5.565 |
| 71 | `Cn1nc(COCC2CC2)c2c1CN(C(=O)c1ccno1)CC2.O=C(O)C(F)(F)F` | 0.6062 and 24.96 |
| 72 | `Cc1nnsc1C(=O)N1CCC2(CC1)c1nc[nH]c1CCN2CC(C)C` | -28.03 |
| 73 | `[H][C@@]12CCN(C[C@@H]1C(=O)N1CCOCC1)[C@@H](Cn1cc(C(C)(C)O)nn1)C2` | -18.03 and -4.782 |
| 74 | `CC(C)n1ncc2cc(NC(=O)N3CCC(C(N)=O)C3)cnc21` (centres undefined) | -44.43 and -5.923 |
| 75 | `Cc1nn(CC(=O)N2CCN(Cc3cnn(C)c3C)CC2)cc1Cl` | 14.88 |
| 76 | `O=C(NCc1cccnc1)NCC(O)c1ccccc1C(F)(F)F` (centres undefined) | -6.491 |
| 77 | `CCNC(=O)CN(Cc1ccoc1)C1CCCCC1` | -0.879 and 9.156 |
| 78 | `COCc1nc2cc3c(cc2c(=O)o1)OCCCO3` | -26.82 and -1.556 |
| 79 | `CC(NC(=O)C1CCN(S(N)(=O)=O)CC1)c1cccc(OC(F)F)c1` (centres undefined) | -32.58 |
| 80 | `CC1CN(C(=O)NCCc2nc(C(C)C)no2)CCO1` (centres undefined) | -10.97 |
| 81 | `O=C1CC(c2ccccc2)c2sc(C(=O)O)c(-c3ccccc3)c2N1` (centres undefined) | -27.42 |
| 82 | `CCN1CCN(c2ccc(F)cc2C(C)NCc2ccccn2)CC1` (centres undefined) | -37.61 and 1.704 |
| 83 | `CC(C)N1CC(NC(=O)c2ccc(Cl)s2)CC1=O` (centres undefined) | -7.615 |
| 84 | `O=C(c1ccccc1F)N1CC(c2nc(-c3ccc[nH]c3=O)no2)C1` | 3.935 and 7.135 |
| 85 | `Clc1cccc(Cl)c1CNCCOc1ccccn1` | 1.622 and 14 |
| 86 | `Cn1c(=O)n(C)c2nc(Br)c(CC(=O)c3ccccc3)n2c1=O` | -6.463 |
| 87 | `Cc1nccc(C(=O)N2CCCC(c3cc(C(F)(F)F)[nH]n3)C2)n1` (centres undefined) | -14.02 and 10.58 |
| 88 | `Cc1cc(CN2CCCC2c2noc(C)n2)no1` (centres undefined) | 4.667 |
| 89 | `O=C(O)C(F)(F)F.O=C(O)C(F)(F)F.[H][C@@]12CN(CC)C[C@]1([H])[C@@H](OC)CCN2S(=O)(=O)c1cccnc1` | -2.394 |
| 90 | `COc1ccc(N(C(=O)c2cnc(C)cn2)C(C)C)cc1F` | 22.77 |
| 91 | `Cc1n[nH]c(C)c1-c1cc(-c2cccc(O)c2)nc(N)c1C#N` | -0.9918 |
| 92 | `CCc1nc(-c2cncnc2C2CCCNC2)no1.Cl` (centres undefined) | 24.32 |
| 93 | `Cc1cncc(C2CCCN2CC(N)=O)n1` (centres undefined) | 3.847 |
| 94 | `Cn1cc(CN2CCC3(CC2)CC(=O)Nc2ccccc23)cn1` | 6.247 and -1.42 |

For reference, 8 entries once more:

CC(C)N1CC(NC(=O)c2ccc(Cl)s2)CC1=O (centres undefined) gave -7.615%.
CCNC(=O)CN(Cc1ccoc1)C1CCCCC1 gave -0.879% and 9.156%.
[H][C@]12CCC[C@@]1(COCc1ccccn1)CN(C(=O)Cc1ccsc1)C2 gave -18.64%.
COc1c(C)cnc(CNC(=O)CCOCc2ccccc2)c1C gave -17.54%.
CCOc1ccc(CN2CCC(c3[nH]ncc3C)C2)cc1CO (centres undefined) gave -19.16%.
CCOc1ncccc1NC(=O)N1CCN(Cc2ccncc2)CC1 gave -16.77%.
CCC(=O)NCC(=O)NCC1(O)CCC(C(C)(C)C)CC1 (centres undefined) gave -7.984%.
N#Cc1c2n(c3c(N)ncnc13)CCCCC2 gave -35.6% and -13.21%.